PubChem BioAssay
The shares of active, inactive and inconclusive entries below differ from those in the screen. Activity calls are given as the source filed them.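 The calls were made as follows: active = thallium flux slope above the same plate's solvent-only control mean plus 3 SD; inconclusive = the two replicate wells disagree; inactive = no significant difference from solvent-only control wells.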

Sequences of proteins named here, by UniProt entry; tags and fusion partners are left off. A change or cut given only in a name is not applied to a line headed by its entry.
UniProt Q9H2X9: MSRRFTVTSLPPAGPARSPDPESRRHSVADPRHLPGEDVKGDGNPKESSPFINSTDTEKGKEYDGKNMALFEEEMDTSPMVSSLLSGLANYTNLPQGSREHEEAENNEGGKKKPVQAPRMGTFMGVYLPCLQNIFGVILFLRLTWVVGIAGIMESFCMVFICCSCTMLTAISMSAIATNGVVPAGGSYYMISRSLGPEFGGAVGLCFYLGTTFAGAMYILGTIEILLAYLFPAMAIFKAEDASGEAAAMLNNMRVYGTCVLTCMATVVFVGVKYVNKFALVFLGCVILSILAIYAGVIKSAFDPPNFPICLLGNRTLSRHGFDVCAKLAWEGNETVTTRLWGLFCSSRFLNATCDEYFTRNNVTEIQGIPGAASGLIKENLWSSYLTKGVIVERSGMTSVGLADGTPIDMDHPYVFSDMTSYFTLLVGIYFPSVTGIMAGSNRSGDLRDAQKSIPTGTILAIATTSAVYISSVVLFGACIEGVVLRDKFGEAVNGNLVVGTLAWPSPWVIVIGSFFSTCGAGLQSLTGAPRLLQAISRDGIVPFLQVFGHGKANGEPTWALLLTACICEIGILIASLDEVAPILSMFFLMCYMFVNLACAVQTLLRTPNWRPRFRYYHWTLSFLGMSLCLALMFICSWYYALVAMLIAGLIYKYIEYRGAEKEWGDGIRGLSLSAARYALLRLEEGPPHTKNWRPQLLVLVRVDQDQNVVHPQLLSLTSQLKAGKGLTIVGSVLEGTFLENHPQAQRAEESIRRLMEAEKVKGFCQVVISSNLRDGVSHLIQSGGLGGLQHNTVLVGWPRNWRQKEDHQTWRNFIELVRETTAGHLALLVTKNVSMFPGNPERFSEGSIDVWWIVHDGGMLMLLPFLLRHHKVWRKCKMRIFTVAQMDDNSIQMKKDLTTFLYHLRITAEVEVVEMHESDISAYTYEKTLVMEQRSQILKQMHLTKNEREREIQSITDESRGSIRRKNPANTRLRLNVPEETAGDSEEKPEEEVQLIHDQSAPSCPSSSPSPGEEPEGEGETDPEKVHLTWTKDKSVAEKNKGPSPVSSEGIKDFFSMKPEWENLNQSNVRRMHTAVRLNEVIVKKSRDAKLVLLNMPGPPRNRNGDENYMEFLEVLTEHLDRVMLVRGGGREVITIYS

Target: Solute carrier family 12 member 5 (Homo sapiens) (UniProt Q9H2X9)
Test: retest of KCC2 transport modulators without sodium – cell-based, HEK293 KCC2, thallium flux, secondary assay, confirmation (AID 1713)
Conditions: FluoZin2 fluorescence, at 10 µM, hits give high values
Outline: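 System: HEK cells expressing human KCC2 cotransporter; Buffer or medium: Na-free NMDG-Cl buffer; Also added: thallium sulfate stimulus buffer at pH 7.3; Dosing: 10 µM single dose, 0.1% DMSO; Timing: 48 min dye loading; Measured by: kinetic FluoZin2 fluorescence at 1 Hz, ex 480/em 540 nm; Read-out: baseline-normalized fluorescence slope, 10–20 s post-Tl+.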

Compound	normalised thallium flux (F/F0 slope)
COc1cccc(C(=O)Nc2nnc(-c3ccc(Cl)cc3)o2)c1	inconclusive: 0.00935
Cc1ccc(/C=C2/SC(=O)NC2=S)o1	inconclusive: 0.00938
CCC1=NN2C(=N)/C(=C\c3cccn3-c3c(C)cccc3C)C(=O)N=C2S1	inconclusive: 0.0121
CC(C)CNC(=S)NC(=O)c1csc([N+](=O)[O-])c1	inconclusive: 0.0125
Cc1ccc(NC(=S)NNc2ncc(C(F)(F)F)cc2Cl)cc1	inconclusive: 0.0108
O=C1CS/C(=C/C(=O)c2cccc(Cl)c2)N1	inconclusive: 0.0121
CCn1nnc(NC(=S)NC(=O)c2ccc(-c3cccc(Cl)c3)o2)n1	inconclusive: 0.00866
CC1CCCCC12NC(=S)N(c1ccccc1)N2 (centres undefined)	inconclusive: 0.0119
CCCn1c(NC(=S)Nc2ccccc2)nc2ccccc21	inconclusive: 0.011
Cc1ccc(-c2n[nH]c(=S)n2/N=C/c2ccc(C)o2)cc1	inconclusive: 0.012
Cc1ccc(NC(=O)/C(=C\C=C\c2ccccc2)NC(=O)c2ccccc2)cc1	inconclusive: 0.00697
Cc1ccc(Cc2c[nH]c(=S)s2)cc1	inconclusive: 0.0114
N=c1oc2ccccc2cc1C(=O)N/N=C/c1ccccc1	active: 0.00592
Cc1scc(C(=O)N/N=C/c2ccc(Cl)s2)c1C	inconclusive: 0.0111
Cc1[nH]n(-c2ccccc2)c(=O)c1/C=N/N1C(=O)c2cccc3cccc(c23)C1=O	inconclusive: 0.0208
CC(=O)Oc1ccc(C(c2ccc(OC(C)=O)cc2)c2ccccn2)cc1	inconclusive: 0.0204
S=c1[nH]nc(COc2ccccc2)n1/N=C/c1ccc(Br)s1	inconclusive: 0.0193
Cc1nonc1NC(=O)CSc1nc(C2CCCCC2)nc2ccccc12	inconclusive: 0.00664
C/C(=N\NC(=S)Nc1cc(S(=O)(=O)N2CCOCC2)ccc1Cl)c1ccccc1F	inconclusive: 0.00928
C=CCn1c(Sc2nncn2C)nc2c1c(=O)[nH]c(=O)n2C	inconclusive: 0.0108
O=C(CSc1nnc(SCc2cccc3ccccc23)s1)c1ccc2c(c1)OCO2	inconclusive: 0.00514
COc1ccc(N(C(C)C(=O)N2CCC(Cc3ccccc3)CC2)S(C)(=O)=O)cc1 (centres undefined)	inconclusive: 0.00592
CCOC(=O)C1=NN(C(=O)c2ccc(OC)cc2)C(O)(c2ccc(Cl)cc2)C1 (centres undefined)	inconclusive: 0.00987
CCCCOc1ccc(Cc2c(COCC)[nH]c(=S)[nH]c2=O)cc1	inconclusive: 0.00598

Random excerpt: 2 entries already listed, in no set order.
Compound	normalised thallium flux (F/F0 slope)
CC(C)CNC(=S)NC(=O)c1csc([N+](=O)[O-])c1	inconclusive: 0.0125
Cc1ccc(-c2n[nH]c(=S)n2/N=C/c2ccc(C)o2)cc1	inconclusive: 0.012
